These results are taken from PubChem BioAssay AID1961 (Sanford-Burnham Center for Chemical Genomics, 2009).

Some of the results follow. Some tests of the compounds listed are not included; inactive here does not mean inactive elsewhere.

This test is described as follows: selective activators of receptor GPR55 – imaging, U2OS cells, beta-arrestin-GFP redistribution, primary screen (AID 1961).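 Note: U2OS osteosarcoma cells stably expressing GPR55 and beta-arrestin-GFP.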 Particulars: measured here: cytotoxicity, cells analyzed, at 10 µM.
For the molecule `CC(C)N1C(=O)CC2(CCN(CCOC(=O)C(O)(c3ccccc3)c3ccccc3)CC2)C1=O`, the cell count turned out to be 406 cells.
`CCN(CC)CC(C)C(C)OC(=O)C(O)(c1ccccc1)c1ccccc1` (centres undefined) displayed a cell count of 352 cells.
Molecule `COc1cc(SC)ccc1C(=O)NCC1(N(C)C)CCCCC1` yielded a cell count of 386 cells.
On to `Cc1ccc(C(=O)NCC2(N3CCCCC3)CCCCC2)cc1`, for which the cell count stood at 364 cells.
The same measure for `O=C(NCC1(N2CCCCC2)CCCCC1)c1cc([N+](=O)[O-])ccc1Cl`: 238 cells; for `CN1[C@@H]2CC[C@H]1CC(OC(=O)C(O)(c1ccccc1)c1ccccc1)C2` (some centres undefined): 394 cells.
Consider `C=CCN1CCN(CCOC(=O)C(O)(c2ccccc2)c2ccccc2)CC1`, for which the cell count was found to be 342 cells.
For the molecule `O=C(NCC1(N2CCCCC2)CCCCC1)c1cc(F)c(F)cc1Cl`, the cell count is 342 cells.
The same measure for `CCN1CCCC(OC(=O)C2(O)c3ccccc3C=Cc3ccccc32)C1` (centres undefined): 326 cells; for `Cc1cc(C(=O)NCC2(N3CCCCC3)CCCCC2)ccc1[N+](=O)[O-]`: 311 cells.
The molecule `O=C(NCC1(N2CCCCC2)CCCCC1)c1cccc(Br)c1` had a cell count of 389 cells.
Molecule `COc1ccc(C(=O)NCC2(N(C)C)CCCCC2)cc1` yielded a cell count of 364 cells.
As for `Cc1ccccc1C(=O)NCC1(N2CCCCC2)CCCCC1`, the cell count was determined as 191 cells.
Next, `CN(C)c1ccc(C(=O)NCC2(N(C)C)CCCCC2)cc1`: 407 cells; `CN(C)C1CCCC1OC(=O)C(O)(c1ccccc1)c1ccccc1` (centres undefined): 329 cells.
As to `COc1cccc(C(=O)NCC2(N3CCCCC3)CCCCC2)c1`, the cell count stood at 248 cells.
In turn, `COc1ccc(Cl)cc1C(=O)NCC1(N(C)C)CCCCC1` returned a cell count of 342 cells.
Next, `O=C(NCC1(N2CCCCC2)CCCCC1)c1cccc(Cl)c1`: 343 cells.
Take `CN(C)C1(CNC(=O)c2ccc(Br)cc2)CCCCC1`: the cell count worked out at 391 cells.
Molecule `COc1cc(C(=O)NCC2(N(C)C)CCCCC2)c([N+](=O)[O-])cc1OC` yielded a cell count of 335 cells.
`COc1ccc(Br)c(C(=O)NCC2(N3CCCCC3)CCCCC2)c1` gave a cell count of 345 cells.
In turn, `CN(C)c1cccc(C(=O)NCC2(N(C)C)CCCCC2)c1` registered a cell count of 296 cells.
Next, `CC(C)Oc1ccc(C(=O)NCC2(N(C)C)CCCCC2)cc1`: 349 cells.
The same measure for `O=C(OC1CN2CCC1CC2)C(CO)(c1ccccc1)c1ccccc1` (centres undefined): 393 cells.
